The target in one assay is METTL3, Flag-tagged (UniProt Q86U44). The experiment in a line: co-IP; 293T-purified Flag-METTL3 mixed with 293T-purified HA-RBM15; mixture immunoprecipitated with IgG, anti-Flag and anti-HA antibody; blotted for both proteins; both purified.
For assay [1], the target named is insulin-like growth factor 2 mRNA-binding protein 1 (IGF2BP1), Myc-tagged, Q9NZI8. The assay is described as follows: co-IP; mutual co-IP; PC-3 cell lysates immunoprecipitated with IgG or anti-Myc-tag antibody, Protein A/G magnetic beads; precipitates blotted for IGF2BP1/2/3. To be noted: remark: other sources report otherwise.
For assay [2], the target named is insulin-like growth factor 2 mRNA-binding protein 2 (IGF2BP2), Myc-tagged, Q9Y6M1. The description is as above. To be noted: remark: other sources report otherwise.

The chains behind the UniProt entries cited, without tags or fusion partners.
UniProt Q86U44: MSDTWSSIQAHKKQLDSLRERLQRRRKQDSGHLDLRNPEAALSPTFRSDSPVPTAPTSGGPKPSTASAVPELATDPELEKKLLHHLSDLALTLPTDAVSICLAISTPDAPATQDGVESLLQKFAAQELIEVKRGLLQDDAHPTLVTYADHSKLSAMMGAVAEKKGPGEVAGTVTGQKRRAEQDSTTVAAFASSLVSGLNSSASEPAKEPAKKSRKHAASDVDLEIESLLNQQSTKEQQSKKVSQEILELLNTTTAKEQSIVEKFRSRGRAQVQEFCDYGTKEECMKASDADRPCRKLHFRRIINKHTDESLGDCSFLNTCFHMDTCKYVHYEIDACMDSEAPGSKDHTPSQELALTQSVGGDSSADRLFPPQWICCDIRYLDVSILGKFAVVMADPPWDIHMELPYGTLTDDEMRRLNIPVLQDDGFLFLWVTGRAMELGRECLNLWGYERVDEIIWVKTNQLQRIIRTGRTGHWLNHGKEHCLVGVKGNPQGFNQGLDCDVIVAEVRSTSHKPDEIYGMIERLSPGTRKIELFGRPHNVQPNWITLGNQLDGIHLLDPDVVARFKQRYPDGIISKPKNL

3 molecules from PMC11041046 can be followed below.

No constants are given. Whether binding was seen depends on the method and setting. For part of these data: In cells and extracts the contact can be indirect. Some entries that bind do so weakly or less than the wild type. Where a sequence is shown, tags or fusion partners need not be part of it.

B1: RBM15, HA-tagged (protein, UniProt Q96T37 1-977)
chain: MRTAGRDPVPRRSPRWRRAVPLCETSAGRRVTQLRGDDLRRPATMKGKERSPVKAKRSRGGEDSTSRGERSKKLGGSGGSNGSSSGKTDSGGGSRRSLHLDKSSSRGGSREYDTGGGSSSSRLHSYSSPSTKNSSGGGESRSSSRGGGGESRSSGAASSAPGGGDGAEYKTLKISELGSQLSDEAVEDGLFHEFKRFGDVSVKISHLSGSGSGDERVAFVNFRRPEDARAAKHARGRLVLYDRPLKIEAVYVSRRRSRSPLDKDTYPPSASVVGASVGGHRHPPGGGGGQRSLSPGGAALGYRDYRLQQLALGRLPPPPPPPLPRDLERERDYPFYERVRPAYSLEPRVGAGAGAAPFREVDEISPEDDQRANRTLFLGNLDITVTESDLRRAFDRFGVITEVDIKRPSRGQTSTYGFLKFENLDMSHRAKLAMSGKIIIRNPIKIGYGKATPTTRLWVGGLGPWVPLAALAREFDRFGTIRTIDYRKGDSWAYIQYESLDAAHAAWTHMRGFPLGGPDRRLRVDFADTEHRYQQQYLQPLPLTHYELVTDAFGHRAPDPLRGARDRTPPLLYRDRDRDLYPDSDWVPPPPPVRERSTRTAATSVPAYEPLDSLDRRRDGWSLDRDRGDRDLPSSRDQPRKRRLPEESGGRHLDRSPESDRPRKRHCAPSPDRSPELSSSRDRYNSDNDRSSRLLLERPSPIRDRRGSLEKSQGDKRDRKNSASAERDRKHRTTAPTEGKSPLKKEDRSDGSAPSTSTASSKLKSPSQKQDGGTAPVASASPKLCLAWQGMLLLKNSNFPSNMHLLQGDLQVASSLLVEGSTGGKVAQLKITQRLRLDQPKLDEVTRRIKVAGPNGYAILLAVPGSSDSRSSSSSAASDTATSTQRPLRNLVSYLKQKQAAGVISLPVGGNKDKENTGVLHAFPPCEFSQQFLDSPAKALAKSEEDYLVMIIVRGFGFQIGVRYENKKRENLALTLL
Take B1: the binding result in the assay with METTL3, Flag-tagged is given as “binds”.

B2: insulin-like growth factor 2 mRNA-binding protein 2 (IGF2BP2), Myc-tagged, Q9Y6M1 1-599 (protein)
chain: MMNKLYIGNLSPAVTADDLRQLFGDRKLPLAGQVLLKSGYAFVDYPDQNWAIRAIETLSGKVELHGKIMEVDYSVSKKLRSRKIQIRNIPPHLQWEVLDGLLAQYGTVENVEQVNTDTETAVVNVTYATREEAKIAMEKLSGHQFENYSFKISYIPDEEVSSPSPPQRAQRGDHSSREQGHAPGGTSQARQIDFPLRILVPTQFVGAIIGKEGLTIKNITKQTQSRVDIHRKENSGAAEKPVTIHATPEGTSEACRMILEIMQKEADETKLAEEIPLKILAHNGLVGRLIGKEGRNLKKIEHETGTKITISSLQDLSIYNPERTITVKGTVEACASAEIEIMKKLREAFENDMLAVNQQANLIPGLNLSALGIFSTGLSVLSPPAGPRGAPPAAPYHPFTTHSGYFSSLYPHHQFGPFPHHHSYPEQEIVNLFIPTQAVGAIIGKKGAHIKQLARFAGASIKIAPAEGPDVSERMVIITGPPEAQFKAQGRIFGKLKEENFFNPKEEVKLEAHIRVPSSTAGRVIGKGGKTVNELQNLTSAEVIVPRDQTPDENEEVIVRIIGHFFASQTAQRKIREIVQQVKQQEQKYPQGVASQRSK
For the molecule B2, in assay [1], the binding entry was “binds”.

B3: insulin-like growth factor 2 mRNA-binding protein 3 (IGF2BP3), Myc-tagged, O00425 1-579 (protein)
chain: MNKLYIGNLSENAAPSDLESIFKDAKIPVSGPFLVKTGYAFVDCPDESWALKAIEALSGKIELHGKPIEVEHSVPKRQRIRKLQIRNIPPHLQWEVLDSLLVQYGVVESCEQVNTDSETAVVNVTYSSKDQARQALDKLNGFQLENFTLKVAYIPDEMAAQQNPLQQPRGRRGLGQRGSSRQGSPGSVSKQKPCDLPLRLLVPTQFVGAIIGKEGATIRNITKQTQSKIDVHRKENAGAAEKSITILSTPEGTSAACKSILEIMHKEAQDIKFTEEIPLKILAHNNFVGRLIGKEGRNLKKIEQDTDTKITISPLQELTLYNPERTITVKGNVETCAKAEEEIMKKIRESYENDIASMNLQAHLIPGLNLNALGLFPPTSGMPPPTSGPPSAMTPPYPQFEQSETETVHLFIPALSVGAIIGKQGQHIKQLSRFAGASIKIAPAEAPDAKVRMVIITGPPEAQFKAQGRIYGKIKEENFVSPKEEVKLEAHIRVPSFAAGRVIGKGGKTVNELQNLSSAEVVVPRDQTPDENDQVVVKITGHFYACQVAQRKIQEILTQVKQHQQQKALQSGPPQSRRK
Consider B3, for which, in assay [2], the binding result is “binds”.
